Laboratory results as given in patent publication EP0748793A1, “KETOPANTHENOL WITH ACETYLATING PROPERTIES” (TOVARISCHESTVO S OGRANICHENNOI OTVETSTVENNOSTJU " PANT", priority 1994, dated 1995).

Tested on: acetylation of aromatic amines (N-acetylation)
Assay: Acetylating properties of the organism: acetylation of sodium sulfacyl, arylamines determined in urine
Format: in vivo, white rats
Conditions: rats, agent i.p. for 4 days, then Na sulfacyl 20 mg/kg i.p.
Description: The level of the organism supply with a vitamin is determined by the study of the reaction of acetylation of exogenous aromatic amines. The total acetylating properties of the organism were assessed by the method of quantitative determination of the content of arylamines in the examined substrate (urine).
Sodium sulfacyl was chosen as the substance for acetylation.
The influence of 4-days of injections of ketopanthenol on the acetylating properties of white rats was examined during the experiments.
The experiments were carried out using mongrel pubescent male rats. 14 animals were included in each group. The examined agent was injected intraperitoneally in a dose of 29 mg/kg. On the 4th day 4 hours after the last injection of the examined agent the sodium sulfacyl solution in a dose of 20 mg/kg was injected intraperitoneally. All the rats were separated into exchangeable cages for urine gathering. The resulting data were compared with the control groups (group I - only received sodium sulfacyl in a dose of 20 mg/kg, and group II received calcium D-pantothenate).
The average weight of the animals in the group fluctuated within 154.7 ± 10.8 g, the absolute dose of sodium sulfacyl was 3.09 ± 0.14 mg.

Compound | Diuresis M± m
CC(C)(CO)[C@@H](O)C(=O)NCCC(=O)O [D (+) pantothenate Ca, calcium D-pantothenate, reference compound] | 3.9 ± 0.2
CC(C)(CO)C(=O)C(=O)NCCCO [ketopanthenol] | 1.7 ± 0.3
